# Source: the supplement of paper PMC8728848
# This is one part of the list.
# B1: Clec12b (Mus musculus), Q149M0 (protein)
# chain: MSDEVTYATLMLQDSARVRGNQDGNNLRKEGHPAQSSLWRGAALSLMTLCLVLVTGLVTLATMFLQVSNDINSDSEKLSQLQKSIHPQQDNLSESLNSSRKSLTEESLQSQISALLERQEQMATKLCKEFLIHASDHKCNPCPKTWQWYGNSCYYFSINEEKSWSDSRKDCIDKNATLVKIDSTEERDLLQSQLSLTFSFFWLGLSWNSSGRNWLWEDGSFPPPTLFSDKELASFNGSRDCAYFERGNIYASRCSAEIPWICEKTASLVKTEDLD
# Tests used:
# Test in all cases: glycan array binding signal (z-score within array); higher = stronger binding
# Settings in all cases: glycan notation: IUPAC condensed, linker removed
# [1] = molecular target: Gal(a1-3)Gal(b1-4)GlcNAc
# Procedure, shortened: (§1)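 Negative Z-scores can be read as non-binding. The Z-score is calculated within each array and then averaged across arrays of one protein sequence at different concentrations or buffers and across linkers. Arrays, 3228 in all, were curated from the Consortium for Functional Glycomics database and kept only where the protein sequence was available.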
# [2] = molecular target: Gal(a1-3)Gal(b1-4)GlcNAc(b1-2)Man
# Procedure, shortened: as §1
# [3] = molecular target: Gal(a1-3)Gal(b1-4)GlcNAc(b1-2)Man(a1-3)[Gal(a1-3)Gal(b1-4)GlcNAc(b1-2)Man(a1-6)]Man(b1-4)GlcNAc(b1-4)GlcNAc
# Procedure, shortened: as §1
# [4] = molecular target: Gal(a1-3)Gal(b1-4)GlcNAc(b1-3)GalNAc
# Procedure, shortened: as §1
# [5] = molecular target: Gal(a1-3)Gal(b1-4)GlcNAc(b1-6)GalNAc
# Procedure, shortened: as §1
# [6] = molecular target: Gal(a1-3)Gal(b1-4)[Fuc(a1-3)]GlcNAc
# Procedure, shortened: as §1
# [7] = molecular target: Gal(a1-3)Gal(b1-4)[Fuc(a1-3)]GlcNAc(b1-2)Man(a1-3)[Gal(a1-3)Gal(b1-4)[Fuc(a1-3)]GlcNAc(b1-2)Man(a1-6)]Man(b1-4)GlcNAc(b1-4)GlcNAc
# Procedure, shortened: as §1
# [8] = molecular target: Gal(a1-3)GalNAc
# Procedure, shortened: as §1
# [9] = molecular target: Gal(a1-3)[Gal(a1-4)]Gal(b1-4)GlcNAc
# Procedure, shortened: as §1
# [10] = molecular target: Gal(a1-4)Gal(b1-3)GlcNAc(b1-2)Man(a1-3)[Gal(a1-4)Gal(b1-3)GlcNAc(b1-2)Man(a1-6)]Man(b1-4)GlcNAc(b1-4)GlcNAc
# Procedure, shortened: as §1
# [11] = molecular target: Gal(a1-4)Gal(b1-4)Glc
# Procedure, shortened: as §1
# [12] = molecular target: Gal(a1-4)Gal(b1-4)GlcNAc
# Procedure, shortened: as §1
# [13] = molecular target: Gal(a1-4)Gal(b1-4)GlcNAc(b1-2)Man(a1-3)[Gal(a1-4)Gal(b1-4)GlcNAc(b1-2)Man(a1-6)]Man(b1-4)GlcNAc(b1-4)GlcNAc
# Procedure, shortened: as §1
# [14] = molecular target: Gal(a1-4)Gal(b1-4)GlcNAc(b1-3)Gal(b1-4)Glc
# Procedure, shortened: as §1
# [15] = molecular target: Gal(a1-4)GlcNAc
# Procedure, shortened: as §1
# [16] = molecular target: Gal(a1-6)Glc
# Procedure, shortened: as §1
# [17] = molecular target: Gal(b1-2)Gal
# Procedure, shortened: as §1
# [18] = molecular target: Gal(b1-3)Gal
# Procedure, shortened: as §1
# [19] = molecular target: Gal(b1-3)Gal(b1-4)GlcNAc
# Procedure, shortened: as §1
# [20] = molecular target: Gal(b1-3)GalNAc
# Procedure, shortened: as §1
# [21] = molecular target: Gal(b1-3)GalNAc(a1-3)[Fuc(a1-2)]Gal(b1-4)Glc
# Procedure, shortened: as §1
# [22] = molecular target: Gal(b1-3)GalNAc(a1-3)[Fuc(a1-2)]Gal(b1-4)GlcNAc
# Procedure, shortened: as §1
# [23] = molecular target: Gal(b1-3)GalNAc(b1-3)Gal
# Procedure, shortened: as §1
# [24] = molecular target: Gal(b1-3)GalNAc(b1-3)Gal(a1-4)Gal(b1-4)Glc
# Procedure, shortened: as §1
# [25] = molecular target: Gal(b1-3)GalNAc(b1-4)Gal(b1-4)Glc
# Procedure, shortened: as §1
# [26] = molecular target: Gal(b1-3)GalNAc(b1-4)[Neu5Ac(a2-3)]Gal(b1-4)Glc
# Procedure, shortened: as §1
# [27] = molecular target: Gal(b1-3)GlcNAc
# Procedure, shortened: as §1
# [28] = molecular target: Gal(b1-3)GlcNAc(a1-3)Gal(b1-4)GlcNAc
# Procedure, shortened: as §1
# [29] = molecular target: Gal(b1-3)GlcNAc(a1-6)Gal(b1-4)GlcNAc
# Procedure, shortened: as §1
# [30] = molecular target: Gal(b1-3)GlcNAc(b1-2)Man
# Procedure, shortened: as §1
# [31] = molecular target: Gal(b1-3)GlcNAc(b1-2)Man(a1-3)[Gal(b1-3)GlcNAc(b1-2)Man(a1-6)]Man(b1-4)GlcNAc(b1-4)GlcNAc
# Procedure, shortened: as §1
# [32] = molecular target: Gal(b1-3)GlcNAc(b1-2)Man(a1-3)[Gal(b1-3)GlcNAc(b1-2)Man(a1-6)]Man(b1-4)GlcNAc(b1-4)[Fuc(a1-6)]GlcNAc
# Procedure, shortened: as §1
# [33] = molecular target: Gal(b1-3)GlcNAc(b1-2)Man(a1-3)[GlcNAc(b1-4)][Gal(b1-3)GlcNAc(b1-2)Man(a1-6)]Man(b1-4)GlcNAc(b1-4)GlcNAc
# Procedure, shortened: as §1
# [34] = molecular target: Gal(b1-3)GlcNAc(b1-2)[Gal(b1-3)GlcNAc(b1-6)]Man(a1-6)[Gal(b1-3)GlcNAc(b1-2)Man(a1-3)]Man(b1-4)GlcNAc(b1-4)GlcNAc
# Procedure, shortened: as §1
# [35] = molecular target: Gal(b1-3)GlcNAc(b1-3)Gal(b1-3)GlcNAc
# Procedure, shortened: as §1
# [36] = molecular target: Gal(b1-3)GlcNAc(b1-3)Gal(b1-4)Glc
# Procedure, shortened: as §1
# [37] = molecular target: Gal(b1-3)GlcNAc(b1-3)Gal(b1-4)GlcNAc
# Procedure, shortened: as §1
binder,measurement,setting,value
B1,glycan array binding signal (z-score),[1],0.53
same,glycan array binding signal (z-score),[2],0.744
same,glycan array binding signal (z-score),[3],0.311
same,glycan array binding signal (z-score),[4],-0.657
same,glycan array binding signal (z-score),[5],-0.003
same,glycan array binding signal (z-score),[6],0.899
same,glycan array binding signal (z-score),[7],0.852
same,glycan array binding signal (z-score),[8],0.456
same,glycan array binding signal (z-score),[9],-0.196
same,glycan array binding signal (z-score),[10],0.728
same,glycan array binding signal (z-score),[11],0.522
same,glycan array binding signal (z-score),[12],-0.217
same,glycan array binding signal (z-score),[13],0.57
same,glycan array binding signal (z-score),[14],-0.748
same,glycan array binding signal (z-score),[15],-0.506
same,glycan array binding signal (z-score),[16],0.18
same,glycan array binding signal (z-score),[17],2.74
same,glycan array binding signal (z-score),[18],-0.168
same,glycan array binding signal (z-score),[19],-0.695
same,glycan array binding signal (z-score),[20],-0.339
same,glycan array binding signal (z-score),[21],-0.349
same,glycan array binding signal (z-score),[22],-0.587
same,glycan array binding signal (z-score),[23],0.774
same,glycan array binding signal (z-score),[24],-0.678
same,glycan array binding signal (z-score),[25],0.953
same,glycan array binding signal (z-score),[26],-0.595
same,glycan array binding signal (z-score),[27],-0.258
same,glycan array binding signal (z-score),[28],-0.484
same,glycan array binding signal (z-score),[29],-0.642
same,glycan array binding signal (z-score),[30],0.051
same,glycan array binding signal (z-score),[31],0.301
same,glycan array binding signal (z-score),[32],0.132
same,glycan array binding signal (z-score),[33],0.058
same,glycan array binding signal (z-score),[34],0.213
same,glycan array binding signal (z-score),[35],-0.725
same,glycan array binding signal (z-score),[36],-0.698
same,glycan array binding signal (z-score),[37],-0.41

# 2 entries from above, with tabs:
binder	measurement	setting	value
B1	glycan array binding signal (z-score)	[13]	0.57
same	glycan array binding signal (z-score)	[16]	0.18
